Experimental data as given in article PMC9282857.
These are yes or no findings as the source states them, for the method shown. Binding seen in cells or lysates may run through a third protein. Some binding calls cover weakened binding; strength is not graded here. Tags and fused reporters may be left off the sequences shown.

Target: T1, Itr1-GFP (S. cerevisiae) (UniProt P30605)
T1 sequence: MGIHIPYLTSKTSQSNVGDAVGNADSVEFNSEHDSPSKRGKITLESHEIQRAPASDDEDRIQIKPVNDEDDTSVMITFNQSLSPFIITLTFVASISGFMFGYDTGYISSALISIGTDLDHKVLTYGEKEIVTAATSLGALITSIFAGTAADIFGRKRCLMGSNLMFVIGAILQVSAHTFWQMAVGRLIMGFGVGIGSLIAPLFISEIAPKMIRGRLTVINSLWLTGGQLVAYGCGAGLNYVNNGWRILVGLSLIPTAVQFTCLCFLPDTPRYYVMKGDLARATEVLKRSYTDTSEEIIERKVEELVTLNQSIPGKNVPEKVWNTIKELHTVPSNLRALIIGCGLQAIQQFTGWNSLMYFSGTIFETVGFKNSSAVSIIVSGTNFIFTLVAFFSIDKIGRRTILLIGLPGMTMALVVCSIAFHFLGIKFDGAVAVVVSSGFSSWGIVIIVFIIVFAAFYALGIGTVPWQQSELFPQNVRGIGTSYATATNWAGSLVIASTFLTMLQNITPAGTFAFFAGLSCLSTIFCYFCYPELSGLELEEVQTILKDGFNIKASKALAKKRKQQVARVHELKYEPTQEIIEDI
Test: co-IP; yeast lysate in IP buffer with 1% Triton X-100; GFP-tagged cargo bound to GFP-nanotrap resin 2 hr at 4°C; ART protein detected by blot

B1: Art5^WT (protein, UniProt P53244 1-586)
chain: MFSLSSLSSSGGHSEQKERERISYFDIRINSPYKDIILIQGSPLELSSIPLSGNLVISVKNEIVVKKISLRLVGRFKLEFLQVGRYKKNSSSLASLVKEKRKIFECYWDNLLVSSKGDVLVGGENAENQHNSSSGRSTSNQDMDTSGNAIFLSKRSLSSPVFNKIIRRKTHSSHRKILELPENGVTGTPFEGLRENARSRSSSSNTLNNNSHSYSNRDGSGSSYLFLMKRGNYELPFNTMLPPEVCETIEGLQSGSILYSFEAIIDGRQLWDTDLSVHTSPHGPIGSTSTSGNGMRTKNKIIIKKFKYLRILRTLSMDNLAMQEEISVGNTWRDKLQYETSIPSRAVPIGSTTPVKIKIFPFEKNIRLDRIEMALIQYYAMKDSSAQIYDDEIAVMKITHLADFGPLTDKLDVDCPFTIPDNLKQITQDCCLQDNLIRVMHKLQVRILLQRQVDGEYKNLEIKAQLPMLLFISPHLPMKGRLVLFDKHDGKIHFRPGELVPLFLTTYPAQGLTPGVELNSTTTAHLALPQPPPNYHESTNDHLMPALQPLGADSVVLTVPSYEQAQAQASASSYVTGSVPAYCDDD
modifications: partly K63-linked di-ubiquitinated at K364 in cells
binding: binds

B2: art5^K364R (protein, UniProt P53244 1-586)
chain: MFSLSSLSSSGGHSEQKERERISYFDIRINSPYKDIILIQGSPLELSSIPLSGNLVISVKNEIVVKKISLRLVGRFKLEFLQVGRYKKNSSSLASLVKEKRKIFECYWDNLLVSSKGDVLVGGENAENQHNSSSGRSTSNQDMDTSGNAIFLSKRSLSSPVFNKIIRRKTHSSHRKILELPENGVTGTPFEGLRENARSRSSSSNTLNNNSHSYSNRDGSGSSYLFLMKRGNYELPFNTMLPPEVCETIEGLQSGSILYSFEAIIDGRQLWDTDLSVHTSPHGPIGSTSTSGNGMRTKNKIIIKKFKYLRILRTLSMDNLAMQEEISVGNTWRDKLQYETSIPSRAVPIGSTTPVKIKIFPFERNIRLDRIEMALIQYYAMKDSSAQIYDDEIAVMKITHLADFGPLTDKLDVDCPFTIPDNLKQITQDCCLQDNLIRVMHKLQVRILLQRQVDGEYKNLEIKAQLPMLLFISPHLPMKGRLVLFDKHDGKIHFRPGELVPLFLTTYPAQGLTPGVELNSTTTAHLALPQPPPNYHESTNDHLMPALQPLGADSVVLTVPSYEQAQAQASASSYVTGSVPAYCDDD
binding: binds
